Experimental data reported in patent publication US20090036353 (published 2009).

Experiment: peptide synthesis

Substance | step yield (late stage modification step) | final HPLC purity (conjugation step, UV 214 nm)
B29K(N(eps)-N-tert-butyloxycarbonyl-O-tert-butyl-serinyl) desB30 insulin | 80% | –
B29K(N(eps)-{3-[2-(1,3-Bis[2-(2-{2-[2-(2-methoxyethoxy)ethoxy]acetylamino}ethoxy)ethoxy]-propan-2-yloxy)acetylamino]propanoyl}) desB30 Human Insulin | – | 100.0% pure
